Among the data in article PMC12328827 are binding values, retold here.

Chains of the proteins cited; added tags and fusions are not shown. Lines headed by an entry give the natural chain unless they say otherwise; changes in a name come on top. A line that says so, or that is headed by a name, gives the form on record, which may keep a tag or linker.
KIT Δ560–578 mutant (constitutively active, imatinib-sensitive) of GIST-T1 cells (human (endogenous in GIST-T1)) (P10721, form named): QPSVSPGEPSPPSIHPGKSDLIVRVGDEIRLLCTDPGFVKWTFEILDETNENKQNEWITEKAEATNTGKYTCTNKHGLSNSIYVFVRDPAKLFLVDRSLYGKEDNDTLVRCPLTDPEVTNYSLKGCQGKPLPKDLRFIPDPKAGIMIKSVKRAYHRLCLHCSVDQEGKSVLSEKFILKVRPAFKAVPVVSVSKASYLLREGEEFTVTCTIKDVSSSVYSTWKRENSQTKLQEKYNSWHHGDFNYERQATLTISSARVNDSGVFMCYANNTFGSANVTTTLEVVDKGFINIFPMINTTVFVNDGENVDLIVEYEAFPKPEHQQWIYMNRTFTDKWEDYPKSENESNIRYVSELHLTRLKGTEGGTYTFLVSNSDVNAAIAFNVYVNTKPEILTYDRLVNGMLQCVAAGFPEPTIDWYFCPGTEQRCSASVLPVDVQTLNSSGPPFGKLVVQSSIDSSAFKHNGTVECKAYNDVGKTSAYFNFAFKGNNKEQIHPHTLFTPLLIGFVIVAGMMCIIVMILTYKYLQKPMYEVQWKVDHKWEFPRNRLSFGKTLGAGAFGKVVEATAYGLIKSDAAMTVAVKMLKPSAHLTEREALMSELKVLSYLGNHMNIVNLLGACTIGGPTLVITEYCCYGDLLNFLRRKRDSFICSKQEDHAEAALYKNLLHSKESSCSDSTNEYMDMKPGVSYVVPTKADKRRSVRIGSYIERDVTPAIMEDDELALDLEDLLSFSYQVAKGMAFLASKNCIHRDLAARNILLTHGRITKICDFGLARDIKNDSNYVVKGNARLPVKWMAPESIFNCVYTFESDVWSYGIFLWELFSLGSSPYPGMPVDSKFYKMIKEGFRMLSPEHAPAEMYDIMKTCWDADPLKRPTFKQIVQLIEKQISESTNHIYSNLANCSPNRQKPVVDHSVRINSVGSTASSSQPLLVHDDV
UniProt O14939: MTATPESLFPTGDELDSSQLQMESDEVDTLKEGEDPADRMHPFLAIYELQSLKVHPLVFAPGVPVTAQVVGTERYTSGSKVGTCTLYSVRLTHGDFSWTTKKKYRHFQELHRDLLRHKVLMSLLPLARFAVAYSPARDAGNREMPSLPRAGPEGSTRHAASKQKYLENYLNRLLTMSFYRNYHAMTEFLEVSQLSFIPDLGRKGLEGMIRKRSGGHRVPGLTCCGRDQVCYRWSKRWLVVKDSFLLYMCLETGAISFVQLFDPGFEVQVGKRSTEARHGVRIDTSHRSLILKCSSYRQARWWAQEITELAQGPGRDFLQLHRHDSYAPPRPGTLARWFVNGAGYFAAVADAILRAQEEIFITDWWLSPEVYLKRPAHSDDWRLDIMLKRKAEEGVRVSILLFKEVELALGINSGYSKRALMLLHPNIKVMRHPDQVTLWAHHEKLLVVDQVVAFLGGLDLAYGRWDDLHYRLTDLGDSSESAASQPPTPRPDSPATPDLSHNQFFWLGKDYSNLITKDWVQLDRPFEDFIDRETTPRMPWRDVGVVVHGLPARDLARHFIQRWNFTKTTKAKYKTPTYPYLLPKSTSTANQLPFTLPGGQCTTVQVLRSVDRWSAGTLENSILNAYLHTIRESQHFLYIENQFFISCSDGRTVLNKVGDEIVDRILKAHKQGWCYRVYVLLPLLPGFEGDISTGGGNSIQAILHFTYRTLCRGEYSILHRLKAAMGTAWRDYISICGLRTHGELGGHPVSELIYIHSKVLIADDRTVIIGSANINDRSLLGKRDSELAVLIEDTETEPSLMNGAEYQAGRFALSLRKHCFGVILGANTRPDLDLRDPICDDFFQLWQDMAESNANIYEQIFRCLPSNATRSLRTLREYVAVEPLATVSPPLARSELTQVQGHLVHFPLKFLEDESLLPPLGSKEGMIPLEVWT

These are yes or no findings as the source states them, for the method shown. Binding seen in cells or lysates may run through a third protein. Some entries that bind do so weakly or less than the wild type.

For test [1], the target named is KIT Δ560–578 mutant (constitutively active, imatinib-sensitive) of GIST-T1 cells (human (endogenous in GIST-T1)) (UniProt P10721). Nature of the test: co-IP; KIT immunoprecipitated from GIST-T1 lysates (NP-40 lysis buffer, 4 °C, 5 h, Dynabeads Protein G pre-coated with anti-KIT; anti-ALK as control antibody), blotted for PLD2; cells untreated or treated with 200 nM imatinib for 8 h.

Test [2] concerns the target T1, Golgi-localised, γ-ear-containing, ARF-binding family of protein 1 (human (endogenous in GIST-T1)), Q9UJY5.
T1 chain: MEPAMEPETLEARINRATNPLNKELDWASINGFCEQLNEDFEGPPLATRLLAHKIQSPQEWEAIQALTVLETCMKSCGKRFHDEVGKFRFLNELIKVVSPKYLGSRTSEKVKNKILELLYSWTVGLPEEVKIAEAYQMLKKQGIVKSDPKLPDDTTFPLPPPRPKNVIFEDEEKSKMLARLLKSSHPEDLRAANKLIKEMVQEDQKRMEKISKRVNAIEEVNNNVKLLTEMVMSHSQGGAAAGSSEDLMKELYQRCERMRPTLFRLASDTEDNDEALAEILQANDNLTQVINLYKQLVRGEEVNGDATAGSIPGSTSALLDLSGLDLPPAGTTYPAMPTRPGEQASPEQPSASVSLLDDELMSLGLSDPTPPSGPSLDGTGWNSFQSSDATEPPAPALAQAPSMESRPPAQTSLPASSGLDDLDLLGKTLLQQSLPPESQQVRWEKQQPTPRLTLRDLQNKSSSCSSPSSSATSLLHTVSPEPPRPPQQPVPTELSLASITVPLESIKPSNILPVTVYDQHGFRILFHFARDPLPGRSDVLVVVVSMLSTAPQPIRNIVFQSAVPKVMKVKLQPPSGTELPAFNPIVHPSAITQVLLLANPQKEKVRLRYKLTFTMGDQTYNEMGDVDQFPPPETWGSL
Nature of the test: co-IP; GGA1 immunoprecipitated from GIST-T1 lysates (NP-40 lysis buffer, 4 °C, 5 h, Dynabeads Protein G pre-coated with anti-GGA1; control antibody IP), blotted for γ-adaptin; cells untreated or treated with 20 µM PIK-93, 10 µM CRT0066101 or 20 µM CAY10594 for 8 h. The following applies: remark: other sources report otherwise.

Consider “phospholipase D2 (from UniProt O14939 1-933) (enzyme)”, for which the binding result in test [1] is listed as “binds”.

B1: γ-adaptin subunit of the adaptor protein-1 complex (AP1), O43747 1-822 (protein)
chain: MPAPIRLRELIRTIRTARTQAEEREMIQKECAAIRSSFREEDNTYRCRNVAKLLYMHMLGYPAHFGQLECLKLIASQKFTDKRIGYLGAMLLLDERQDVHLLMTNCIKNDLNHSTQFVQGLALCTLGCMGSSEMCRDLAGEVEKLLKTSNSYLRKKAALCAVHVIRKVPELMEMFLPATKNLLNEKNHGVLHTSVVLLTEMCERSPDMLAHFRKLVPQLVRILKNLIMSGYSPEHDVSGISDPFLQVRILRLLRILGRNDDDSSEAMNDILAQVATNTETSKNVGNAILYETVLTIMDIKSESGLRVLAINILGRFLLNNDKNIRYVALTSLLKTVQTDHNAVQRHRSTIVDCLKDLDVSIKRRAMELSFALVNGNNIRGMMKELLYFLDSCEPEFKADCASGIFLAAEKYAPSKRWHIDTIMRVLTTAGSYVRDDAVPNLIQLITNSVEMHAYTVQRLYKAILGDYSQQPLVQVAAWCIGEYGDLLVSGQCEEEEPIQVTEDEVLDILESVLISNMSTSVTRGYALTAIMKLSTRFTCTVNRIKKVVSIYGSSIDVELQQRAVEYNALFKKYDHMRSALLERMPVMEKVTTNGPTEIVQTNGETEPAPLETKPPPSGPQPTSQANDLLDLLGGNDITPVIPTAPTSKPSSAGGELLDLLGDINLTGAPAAAPAPASVPQISQPPFLLDGLSSQPLFNDIAAGIPSITAYSKNGLKIEFTFERSNTNPSVTVITIQASNSTELDMTDFVFQAAVPKTFQLQLLSPSSSIVPAFNTGTITQVIKVLNPQKQQLRMRIKLTYNHKGSAMQDLAEVNNFPPQSWQ
Turning to B1, the binding result in test [2] is “binds”.
